Laboratory results as given in doi:10.1101/2022.09.09.507380.

Chains of the proteins cited; added tags and fusions are not shown.
UniProt P62140: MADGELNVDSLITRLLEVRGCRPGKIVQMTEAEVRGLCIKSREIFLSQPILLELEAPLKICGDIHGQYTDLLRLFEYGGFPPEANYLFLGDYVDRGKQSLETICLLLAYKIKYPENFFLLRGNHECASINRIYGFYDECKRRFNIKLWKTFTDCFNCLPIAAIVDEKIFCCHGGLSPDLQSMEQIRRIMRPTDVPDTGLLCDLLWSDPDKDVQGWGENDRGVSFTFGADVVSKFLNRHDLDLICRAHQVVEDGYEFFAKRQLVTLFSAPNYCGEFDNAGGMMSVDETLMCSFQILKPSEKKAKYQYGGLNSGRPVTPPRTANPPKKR
UniProt P36873: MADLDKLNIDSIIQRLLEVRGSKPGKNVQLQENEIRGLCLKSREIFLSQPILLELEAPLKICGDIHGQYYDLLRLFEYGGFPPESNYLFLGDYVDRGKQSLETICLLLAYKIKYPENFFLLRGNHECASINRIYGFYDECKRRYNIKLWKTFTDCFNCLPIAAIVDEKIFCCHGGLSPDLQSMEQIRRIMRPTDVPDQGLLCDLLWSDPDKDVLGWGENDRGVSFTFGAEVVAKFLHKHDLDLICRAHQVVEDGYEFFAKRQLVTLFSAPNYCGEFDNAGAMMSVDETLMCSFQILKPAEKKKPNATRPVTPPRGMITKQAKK

B1: SDS22 (protein, UniProt Q15435 1-360)
chain: MAAERGAGQQQSQEMMEVDRRVESEESGDEEGKKHSSGIVADLSEQSLKDGEERGEEDPEEEHELPVDMETINLDRDAEDVDLNHYRIGKIEGFEVLKKVKTLCLRQNLIKCIENLEELQSLRELDLYDNQIKKIENLEALTELEILDISFNLLRNIEGVDKLTRLKKLFLVNNKISKIENLSNLHQLQMLELGSNRIRAIENIDTLTNLESLFLGKNKITKLQNLDALTNLTVLSMQSNRLTKIEGLQNLVNLRELYLSHNGIEVIEGLENNNKLTMLDIASNRIKKIENISHLTELQEFWMNDNLLESWSDLDELKGARSLETVYLERNPLQKDPQYRRKVMLALPSVRQIDATFVRF
B2: Inhibitor-2 (protein, UniProt P41236 1-205)
chain: MAASTASHRPIKGILKNKTSTTSSMVASAEQPRGNVDEELSKKSQKWDEMNILATYHPADKDYGLMKIDEPSTPYHSMMGDDEDACSDTEATEAMAPDILARKLAAAEGLEPKYRIQEQESSGEEDSDLSPEEREKKRQFEMKRKLHYNEGLNIKLARQLISKDLHDDDEDEEMLETADGESMNTEESNQGSTPSDQQQNKLRSS
B3: Inhibitor-3 (protein, UniProt O60927 1-126)
chain: MAEAGAGLSETVTETTVTVTTEPENRSLTIKLRKRKPEKKVEWTSDTVDNEHMGRRSSKCCCIYEKPRAFGESSTESDEEEEEGCGHTHCVRGHRKGRRRATLGPTPTTPPQPPDPSQPPPGPMQH
B4: ASPP1 (protein, UniProt Q96KQ4 1-1090)
chain: MMPMILTVFLSNNEQILTEVPITPETTCRDVVEFCKEPGEGSCHLAEVWRGNERPIPFDHMMYEHLQKWGPRREEVKFFLRHEDSPTENSEQGGRQTQEQRTQRNVINVPGEKRTENGVGNPRVELTLSELQDMAARQQQQIENQQQMLVAKEQRLHFLKQQERRQQQSISENEKLQKLKERVEAQENKLKKIRAMRGQVDYSKIMNGNLSAEIERFSAMFQEKKQEVQTAILRVDQLSQQLEDLKKGKLNGFQSYNGKLTGPAAVELKRLYQELQIRNQLNQEQNSKLQQQKELLNKRNMEVAMMDKRISELRERLYGKKIQLNRVNGTSSPQSPLSTSGRVAAVGPYIQVPSAGSFPVLGDPIKPQSLSIASNAAHGRSKSANDGNWPTLKQNSSSSVKPVQVAGADWKDPSVEGSVKQGTVSSQPVPFSALGPTEKPGIEIGKVPPPIPGVGKQLPPSYGTYPSPTPLGPGSTSSLERRKEGSLPRPSAGLPSRQRPTLLPATGSTPQPGSSQQIQQRISVPPSPTYPPAGPPAFPAGDSKPELPLTVAIRPFLADKGSRPQSPRKGPQTVNSSSIYSMYLQQATPPKNYQPAAHSALNKSVKAVYGKPVLPSGSTSPSPLPFLHGSLSTGTPQPQPPSESTEKEPEQDGPAAPADGSTVESLPRPLSPTKLTPIVHSPLRYQSDADLEALRRKLANAPRPLKKRSSITEPEGPGGPNIQKLLYQRFNTLAGGMEGTPFYQPSPSQDFMGTLADVDNGNTNANGNLEELPPAQPTAPLPAEPAPSSDANDNELPSPEPEELICPQTTHQTAEPAEDNNNNVATVPTTEQIPSPVAEAPSPGEEQVPPAPLPPASHPPATSTNKRTNLKKPNSERTGHGLRVRFNPLALLLDASLEGEFDLVQRIIYEVEDPSKPNDEGITPLHNAVCAGHHHIVKFLLDFGVNVNAADSDGWTPLHCAASCNSVHLCKQLVESGAAIFASTISDIETAADKCEEMEEGYIQCSQFLYGVQEKLGVMNKGVAYALWDYEAQNSDELSFHEGDALTILRRKDESETEWWWARLGDREGYVPKNLLGLYPRIKPRQRTLA
B5: ASPP2 (protein, UniProt Q13625 1-1128)
chain: MMPMFLTVYLSNNEQHFTEVPVTPETICRDVVDLCKEPGESDCHLAEVWCGSERPVADNERMFDVLQRFGSQRNEVRFFLRHERPPGRDIVSGPRSQDPSLKRNGVKVPGEYRRKENGVNSPRMDLTLAELQEMASRQQQQIEAQQQLLATKEQRLKFLKQQDQRQQQQVAEQEKLKRLKEIAENQEAKLKKVRALKGHVEQKRLSNGKLVEEIEQMNNLFQQKQRELVLAVSKVEELTRQLEMLKNGRIDSHHDNQSAVAELDRLYKELQLRNKLNQEQNAKLQQQRECLNKRNSEVAVMDKRVNELRDRLWKKKAALQQKENLPVSSDGNLPQQAASAPSRVAAVGPYIQSSTMPRMPSRPELLVKPALPDGSLVIQASEGPMKIQTLPNMRSGAASQTKGSKIHPVGPDWSPSNADLFPSQGSASVPQSTGNALDQVDDGEVPLREKEKKVRPFSMFDAVDQSNAPPSFGTLRKNQSSEDILRDAQVANKNVAKVPPPVPTKPKQINLPYFGQTNQPPSDIKPDGSSQQLSTVVPSMGTKPKPAGQQPRVLLSPSIPSVGQDQTLSPGSKQESPPAAAVRPFTPQPSKDTLLPPFRKPQTVAASSIYSMYTQQQAPGKNFQQAVQSALTKTHTRGPHFSSVYGKPVIAAAQNQQQHPENIYSNSQGKPGSPEPETEPVSSVQENHENERIPRPLSPTKLLPFLSNPYRNQSDADLEALRKKLSNAPRPLKKRSSITEPEGPNGPNIQKLLYQRTTIAAMETISVPSYPSKSASVTASSESPVEIQNPYLHVEPEKEVVSLVPESLSPEDVGNASTENSDMPAPSPGLDYEPEGVPDNSPNLQNNPEEPNPEAPHVLDVYLEEYPPYPPPPYPSGEPEGPGEDSVSMRPPEITGQVSLPPGKRTNLRKTGSERIAHGMRVKFNPLALLLDSSLEGEFDLVQRIIYEVDDPSLPNDEGITALHNAVCAGHTEIVKFLVQFGVNVNAADSDGWTPLHCAASCNNVQVCKFLVESGAAVFAMTYSDMQTAADKCEEMEEGYTQCSQFLYGVQEKMGIMNKGVIYALWDYEPQNDDELPMKEGDCMTIIHREDEDEIEWWWARLNDKEGYVPRNLLGLYPRIKPRQRSLA
B6: MYPT2 (protein, UniProt O60237 1-982)
chain: MAELEHLGGKRAESARMRRAEQLRRWRGSLTEQEPAERRGAGRQPLTRRGSPRVRFEDGAVFLAACSSGDTDEVRKLLARGADINTVNVDGLTALHQACIDENLDMVKFLVENRANVNQQDNEGWTPLHAAASCGYLNIAEYFINHGASVGIVNSEGEVPSDLAEEPAMKDLLLEQVKKQGVDLEQSRKEEEQQMLQDARQWLNSGKIEDVRQARSGATALHVAAAKGYSEVLRLLIQAGYELNVQDYDGWTPLHAAAHWGVKEACSILAEALCDMDIRNKLGQTPFDVADEGLVEHLELLQKKQNVLRSEKETRNKLIESDLNSKIQSGFFKNKEKMLYEEETPKSQEMEEENKESSSSSSEEEEGEDEASESETEKEADKKPEAFVNHSNSESKSSITEQIPAPAQNTFSASSARRFSSGLFNKPEEPKDESPSSWRLGLRKTGSHNMLSEVANSREPIRDRGSSIYRSSSSPRISALLDNKDKERENKSYISSLAPRKLNSTSDIEEKENRESAVNLVRSGSYTRQLWRDEAKGNEIPQTIAPSTYVSTYLKRTPHKSQADTTAEKTADNVSSSTPLCVITNRPLPSTANGVTATPVLSITGTDSSVEAREKRRSYLTPVRDEEAESLRKARSRQARQTRRSTQGVTLTDLQEAERTFSRSRAERQAQEQPREKPTDTEGLEGSPEKHEPSAVPATEAGEGQQPWGRSLDEEPICHRLRCPAQPDKPTTPASPSTSRPSLYTSSHLLWTNRFSVPDSESSETTTNTTTAKEMDKNENEEADLDEQSSKRLSIRERRRPKERRRGTGINFWTKDEDETDGSEEVKETWHERLSRLESGGSNPTTSDSYGDRASARARREAREARLATLTSRVEEDSNRDYKKLYESALTENQKLKTKLQEAQLELADIKSKLEKVAQQKQEKTSDRSSVLEMEKRERRALERKMSEMEEEMKVLTELKSDNQRLKDENGALIRVISKLSK
B7: CDCA2/RepoMan (protein, UniProt Q69YH5 1-1023)
chain: MDANSKDKPPETKESAMNNAGNASFILGTGKIVTPQKHAELPPNPCTPDTFKSPLNFSTVTVEQLGITPESFVRNSAGKSSSYLKKCRRRSAVGARGSPETNHLIRFIARQQNIKNARKSPLAQDSPSQGSPALYRNVNTLRERISAFQSAFHSIKENEKMTGCLEFSEAGKESEMTDLTRKEGLSACQQSGFPAVLSSKRRRISYQRDSDENLTDAEGKVIGLQIFNIDTDRACAVETSVDLSEISSKLGSTQSGFLVEESLPLSELTETSNALKVADCVVGKGSSDAVSPDTFTAEVSSDAVPDVRSPATPACRRDLPTPKTFVLRSVLKKPSVKMCLESLQEHCNNLYDDDGTHPSLISNLPNCCKEKEAEDEENFEAPAFLNMRKRKRVTFGEDLSPEVFDESLPANTPLRKGGTPVCKKDFSGLSSLLLEQSPVPEPLPQPDFDDKGENLENIEPLQVSFAVLSSPNKSSISETLSGTDTFSSSNNHEKISSPKVGRITRTSNRRNQLVSVVEESVCNLLNTEVQPCKEKKINRRKSQETKCTKRALPKKSQVLKSCRKKKGKGKKSVQKSLYGERDIASKKPLLSPIPELPEVPEMTPSIPSIRRLGSGYFSSNGKLEEVKTPKNPVKRKDLLRHDPDLHMHQGYDKYDVSEFCSYIKSSSSLGNATSDEDPNTNIMNINENKNIPKAKNKSESENEPKAGTDSPVSCASVTEERVASDSPKPALTLQQGQEFSAGGQNAENLCQFFKISPDLNIKCERKDDFLGAAEGKLQCNRLMPNSQKDCHCLGDVLIENTKESKSQSEDLGRKPMESSSVVSCRDRKDRRRSMCYSDGRSLHLEKNGNHTPSSSVGSSVEISLENSELFKDLSDAIEQTFQRRNSETKVRRSTRLQKDLENEGLVWISLPLPSTSQKAKRRTICTFDSSGFESMSPIKETVSSRQKPQMAPPVSDPENSQGPAAGSSDEPGKRRKSFCISTLANTKATSQFKGYRRRSSLNGKGESSLTALERIEHNGERKQ
B8: KIF18A (protein, UniProt Q8NI77 1-898)
chain: MSVTEEDLCHHMKVVVRVRPENTKEKAAGFHKVVHVVDKHILVFDPKQEEVSFFHGKKTTNQNVIKKQNKDLKFVFDAVFDETSTQSEVFEHTTKPILRSFLNGYNCTVLAYGATGAGKTHTMLGSADEPGVMYLTMLHLYKCMDEIKEEKICSTAVSYLEVYNEQIRDLLVNSGPLAVREDTQKGVVVHGLTLHQPKSSEEILHLLDNGNKNRTQHPTDMNATSSRSHAVFQIYLRQQDKTASINQNVRIAKMSLIDLAGSERASTSGAKGTRFVEGTNINRSLLALGNVINALADSKRKNQHIPYRNSKLTRLLKDSLGGNCQTIMIAAVSPSSVFYDDTYNTLKYANRAKDIKSSLKSNVLNVNNHITQYVKICNEQKAEILLLKEKLKAYEEQKAFTNENDQAKLMISNPQEKEIERFQEILNCLFQNREEIRQEYLKLEMLLKENELKSFYQQQCHKQIEMMCSEDKVEKATGKRDHRLAMLKTRRSYLEKRREEELKQFDENTNWLHRVEKEMGLLSQNGHIPKELKKDLHCHHLHLQNKDLKAQIRHMMDLACLQEQQHRQTEAVLNALLPTLRKQYCTLKEAGLSNAAFESDFKEIEHLVERKKVVVWADQTAEQPKQNDLPGISVLMTFPQLGPVQPIPCCSSSGGTNLVKIPTEKRTRRKLMPSPLKGQHTLKSPPSQSVQLNDSLSKELQPIVYTPEDCRKAFQNPSTVTLMKPSSFTTSFQAISSNINSDNCLKMLCEVAIPHNRRKECGQEDLDSTFTICEDIKSSKCKLPEQESLPNDNKDILQRLDPSSFSTKHSMPVPSMVPSYMAMTTAAKRKRKLTSSTSNSSLTADVNSGFAKRVRQDNSSEKHLQENKPTMEHKRNICKINPSMVRKFGRNISKGNLR

biological target: hPP1β-GFP (pEGFP expression plasmid, stable cell lines) (human) (UniProt P62140); assay: affinity purification with mass spectrometry

With B1 as the binder, how does the binding read?
Its binding is “binds”.

How did the binding turn out when B2 was run?
The binding was “binds”.

For B3, which binding is on record?
Its binding is “binds”.

Which binding does the source give for B4 here?
Its binding is “binds”.

With B5 as the binder, how does the binding read?
The binding was “binds”.

B6 was tested. Which binding did it give?
Its binding is “binds”.

For B7, which binding is on record?
Its binding is “binds”.

B8 was tested. Which binding did it give?
The binding was “binds”.

biological target: GFP-hPP1γ (pEGFP expression plasmid, stable cell lines) (human) (UniProt P36873); assay: affinity purification with mass spectrometry

For B2, which binding is on record?
Its binding is “binds”.

How did the binding turn out when B3 was run?
Its binding is “binds”.

For B4, which binding is on record?
The binding was “binds”.

How did the binding turn out when B5 was run?
Its binding is “binds”.

For B6, which binding is on record?
Its binding is “no binding”.

Which binding does the source give for B8 here?
Its binding is “binds”.

No constants are given. Whether binding was seen depends on the method and setting. In cells and extracts the contact can be indirect. Here binding means that the protein was enriched with, or labelled near, the bait; the list need not be complete. For some assays here: No binding means not detected with the bait.
